From PubChem BioAssay AID2685 (National Center for Advancing Translational Sciences (NCATS), 2010)
This is one part of the list. Shown are side measurements of this screen, not its main read-out; they come without a call. Most of these compounds were active or inconclusive in the main read-out, so they are no random draw. The note in brackets gives the kind of curve behind each potency; many fits are weak.

Assay: qHTS Assay for Lipid Storage Modulators in Drosophila S3 Cells;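 as to cell number change: cells counted by Cell Tracker Red CMTPX staining in the red channel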
Conditions: BODIPY lipid droplet fluorescence, 18-24 h; for cell number change: measured here: cell count max response, cells fed with added oleic acid
Method in brief: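 Drosophila S3 cells loaded with oleic acid (400 uM, as added) and compounds at several concentrations; lipid droplets imaged by 488-nm laser-scanning cytometry, 500–530 nm intensity and object ratio to cell channel. Percent activity normalized to 20 uM Triacsin C.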

[1] = measured here: lipid fluorescence (Fed channel) AC50, cells fed with added oleic acid
[2] = measured here: cell number channel AC50, cells fed with added oleic acid

In the case of `COc1cc2c(cc1OC)C(C)N(S(=O)(=O)c1cn(C)cn1)CC2` (configuration not stated), the cell number change is reported as 6.48% and the AC50 [1] is reported as 51.7 nM [falling, full curve, poor fit].
For `O=C1OC(OC(=O)c2ccccc2Br)C(N2CCOCC2)=C1Cl` (configuration not stated), the cell number change was -5.92% and the AC50 [1] was 2590 nM [falling, full curve].
With `COc1ccccc1-c1nn(Cc2ccccc2)cc1/C=C/C(=O)O` the cell number change was -14.2% and the AC50 [1] was 5.8 nM [falling, full curve, poor fit].
For `Cn1c(N)c(Sc2ccccc2[N+](=O)[O-])c(=O)n(C)c1=O`, the cell number change was 5.41% and the AC50 [1] was 1840 nM [rising, partial curve].
In the case of `CS(=O)(=O)N(CC(=O)NCCC1=CCCCC1)C1CCCCC1`, the cell number change is reported as 2.56% and the AC50 [1] is reported as 259 nM [falling, partial curve, poor fit].
For `COc1cc(-c2nc(-c3ccc(NC(=O)c4ccc5c(c4)OCO5)cc3)no2)cc(OC)c1OC`, the cell number change was -75.1%, the AC50 [2] was 11600 nM [falling, partial curve] and the AC50 [1] was 20600 nM [falling, single point].
With `FC(F)Oc1ccc(-n2cc(-c3ccccc3)[n+]3c2CCCCC3)cc1` the cell number change was 10.6% and the AC50 [1] was 731 nM [falling, single point].
For `COc1cccc(CNC(=O)C2CCCN(S(=O)(=O)c3ccc4c(c3)C(C)(C)C(=O)N4C)C2)c1` (configuration not stated), the cell number change was 23.1% and the AC50 [1] was 14600 nM [rising, partial curve].
For `COc1cc(CC(NC(C)=O)C(=O)NC2CCN(S(=O)(=O)c3ccc(NC(C)=O)cc3)CC2)cc(OC)c1` (configuration not stated), the cell number change was 40.3% and the AC50 [2] was 6510 nM [rising, full curve, poor fit].
In the case of `C=C1c2ccccc2NC(=O)N1c1ccc(C)cc1`, the AC50 [2] is reported as 51.7 nM [falling, full curve, poor fit].
For `Cc1cccc(NC(=O)N2CCCC(CNC(=O)c3ccccc3Cl)C2)c1C` (configuration not stated), the AC50 [1] was 2310 nM [falling, full curve].
For `COC(=O)c1ccc(CSc2nc3sc(C(=O)O)c(C)c3c(=O)[nH]2)cc1`, the cell number change was -0.695% and the AC50 [1] was 2310 nM [falling, partial curve].
With `CCN(CC)S(=O)(=O)c1ccc(NC2c3ncccc3C(=O)N2Cc2ccccc2)cc1` (configuration not stated) the cell number change was -17.9% and the AC50 [1] was 9200 nM [falling, partial curve, poor fit].
In the case of `CCOC(=O)c1c(CN2CCOCC2)n(-c2ccccc2)c2cc(Br)c(OC)cc12`, the cell number change is reported as 57.2%, the AC50 [2] is reported as 1460 nM [rising, full curve] and the AC50 [1] is reported as 2310 nM [rising, partial curve].
For `COc1ccc(NS(=O)(=O)c2c(C)cc(C)cc2C)cc1`, the cell number change was -22.5% and the AC50 [1] was 580 nM [rising, single point].
For `CSc1nc(SCCO)c2sc3nc(-c4ccco4)c4c(c3c2n1)CC(C)(C)OC4`, the cell number change was -16.3% and the AC50 [2] was 146 nM [rising, full curve, poor fit].
In the case of `COc1cccc(OC)c1OCCCSc1nc(C)cc(=O)[nH]1`, the cell number change is reported as 8.77% and the AC50 [1] is reported as 14600 nM [rising, partial curve].
`O=C(Cn1ccn(-c2ccc(F)c(Cl)c2)c(=O)c1=O)NCCc1ccccc1` showed a cell number change of 8.08%.
For `Cc1[nH]c2ccccc2c1NC(=O)CN1CCN(c2cccc(C(F)(F)F)c2)CC1`, the cell number change was -42.6%, the AC50 [2] was 29100 nM [falling, single point] and the AC50 [1] was 29100 nM [falling, single point].
In the case of `COc1ccc(OC)c(NC(=O)Nc2cnccn2)c1`, the cell number change is reported as -13.4% and the AC50 [1] is reported as 29100 nM [falling, single point].
For `CCCn1nc(C(=O)Nc2nc3ccccc3[nH]2)c2ccccc2c1=O`, the cell number change was 44%, the AC50 [2] was 18400 nM [rising, single point] and the AC50 [1] was 4610 nM [rising, partial curve, poor fit].
With `CC1CCN(c2ccc(S(=O)(=O)NC3=NCCCCC3)cc2[N+](=O)[O-])CC1` the AC50 [2] was 51.7 nM [rising, partial curve, poor fit] and the AC50 [1] was 51.7 nM [rising, partial curve, poor fit].
Molecule `Cc1[nH]nc(Nc2ccccc2)c1[N+](=O)[O-]` has a cell number change of 83.4%.
For `Cc1cc([N+](=O)[O-])cnc1NC(C)c1ccccc1` (configuration not stated), the cell number change was 11.5% and the AC50 [1] was 51.7 nM [falling, full curve, poor fit].
For `Cc1ccc2c(c1)CCCN2C(=O)c1cc(C)c(C)s1`, the cell number change was -49.5% and the AC50 [2] was 13000 nM [falling, partial curve].
With `Fc1ccc(C2CC(c3ccccc3)Nc3ncnn32)cc1` (configuration not stated) the cell number change was -0.552% and the AC50 [1] was 4.61 nM [rising, full curve, poor fit].
For `Cc1ccc(-c2nnc3c4ccccc4c(C)nn23)cc1S(=O)(=O)N1CCN(CCO)CC1`, the AC50 [2] was 206 nM [rising, full curve, poor fit] and the AC50 [1] was 206 nM [rising, full curve, poor fit].
With `COc1cccc(CN(CC(=O)NC2CCCCC2)C(=O)c2csnn2)c1` the cell number change was -13.9% and the AC50 [1] was 116 nM [falling, single point].
In the case of `CSc1cccc(NS(=O)(=O)c2ccc3c(c2)oc(=O)n3C)c1`, the cell number change is reported as -1.66% and the AC50 [1] is reported as 580 nM [rising, single point].
For `COCCNCC#CCOc1ccc(OC)cc1`, the cell number change was -3.51% and the AC50 [1] was 116 nM [falling, full curve, poor fit].
In the case of `C[C@]12CCC3c4ccc(OCC(=O)O)cc4CCC3C1CCC2=O` (some centres not stated), the cell number change is reported as 7.01% and the AC50 [2] is reported as 1840 nM [falling, partial curve].
With `CCCCN(C(=O)CN1C(=O)C2CC=CCC2C1=O)c1c(N)n(CCC)c(=O)[nH]c1=O` (configuration not stated) the cell number change was -98.8% and the AC50 [1] was 18400 nM [falling, single point].
With `CS(=O)(=O)/C(C#N)=C/c1cccn1S(=O)(=O)c1ccccc1` the AC50 [1] was 29100 nM [falling, single point].
For `CCN1CCN(c2ccc(NC(=O)c3ccc(Cl)c(S(=O)(=O)N4CCCC4)c3)cc2)CC1`, the cell number change was 7.36% and the AC50 [1] was 731 nM [falling, single point].
`Cc1ccc(C(=O)NC(C)c2ccccc2)cc1S(=O)(=O)N1CCOCC1` (configuration not stated) gave a cell number change of 3.23%.
For `CCCCN(C(=O)c1cccc(S(=O)(=O)N2CCN(Cc3ccccc3)CC2)c1)c1ccccc1`, the cell number change was 10.6% and the AC50 [1] was 3160 nM [rising, single point].
For `Cc1cccc(NC(=S)N2CCN(S(=O)(=O)c3ccc(F)cc3)CC2)c1`, the AC50 [1] was 35500 nM [rising, partial curve, poor fit].
In the case of `COc1ccc(C2/C(=C(\O)c3ccc4c(c3)OCCO4)C(=O)C(=O)N2c2nc(C)c(C(C)=O)s2)cc1` (configuration not stated), the cell number change is reported as -17.4% and the AC50 [1] is reported as 4110 nM [falling, full curve].
In the case of `CSCCC(NC(=O)COc1ccccc1)C(=O)N1CC(C)CC(C)C1` (configuration not stated), the cell number change is reported as 0.0695%, the AC50 [2] is reported as 461 nM [rising, partial curve] and the AC50 [1] is reported as 651 nM [rising, full curve].
In the case of `O=S(=O)(/N=C(/Nc1ccc(F)cc1F)c1ccccc1)c1ccccc1`, the cell number change is reported as -0.262% and the AC50 [1] is reported as 731 nM [rising, full curve, poor fit].
With `COc1ccc(/C=c2\sc3nc(-c4ccccc4OC)nn3c2=O)c(OC)c1` the cell number change was 30.7% and the AC50 [2] was 10300 nM [rising, single point].
For `Cc1c(C=O)c2ccccc2n1CC(=O)NC(C)c1ccccc1` (configuration not stated), the cell number change was -0.308%, the AC50 [2] was 580 nM [falling, full curve] and the AC50 [1] was 820 nM [falling, full curve].
For `COC(=O)C1=C(C)Nc2c(c(=O)n(C)c(=O)n2C)C1c1ccncc1` (configuration not stated), the cell number change was 30.1%, the AC50 [2] was 731 nM [rising, full curve, poor fit] and the AC50 [1] was 58 nM [rising, full curve, poor fit].
With `O=C(O)c1nnn(-c2cccc(C(F)(F)F)c2)c1-c1ccccc1` the cell number change was -41.5%, the AC50 [2] was 10300 nM [falling, single point] and the AC50 [1] was 11600 nM [falling, partial curve].
In the case of `COc1ccc(OCC(=O)N/N=C/C=C/c2ccccc2)cc1`, the cell number change is reported as 1.61% and the AC50 [1] is reported as 2910 nM [rising, full curve, poor fit].
For `Cc1ccc(S(=O)(=O)CC(=O)NCc2ccc(Cl)cc2)cc1`, the cell number change was 0.125% and the AC50 [1] was 259 nM [falling, full curve].
For `CCOC(=O)C1=C(C)N(C)C(C)=C(C(=O)OCC)C1c1ccc(C(=O)OC)cc1`, the cell number change was -17.4%, the AC50 [2] was 231 nM [falling, full curve, poor fit] and the AC50 [1] was 1030 nM [falling, full curve].
In the case of `COc1ccc(-c2noc(CN(C)S(=O)(=O)c3ccc(C)cc3)n2)cc1`, the AC50 [2] is reported as 130 nM [rising, full curve, poor fit].
For `COc1cccc(NC(=S)N(Cc2ccccn2)Cc2ccccc2Cl)c1`, the AC50 [1] was 6510 nM [rising, single point].
With `CCCCCCC(=O)OCC(=O)c1ccc2c(c1)NC(=O)CO2` the cell number change was 106% and the AC50 [2] was 32600 nM [rising, partial curve, poor fit].
`O=C(NCc1cccnc1)/C(=C/c1ccc(Cl)cc1)NC(=O)c1ccccc1` showed a cell number change of 19.4%.
With `CCn1c(SCc2nc(-c3ccccc3)no2)nnc1-c1cccs1` the cell number change was 41.7%, the AC50 [2] was 461 nM [rising, full curve] and the AC50 [1] was 29100 nM [rising, partial curve].
For `COc1ccccc1-c1n[nH]c(=S)o1`, the cell number change was -7.47% and the AC50 [1] was 6510 nM [rising, single point].
`C=CCN1CN=C(NS(=O)(=O)c2ccc(NC(C)=O)cc2)NC1` showed a cell number change of -12.1%.
In the case of `Cc1ccc(CNC(=O)CNC(=S)N(Cc2ccccc2)Cc2ccccc2F)cc1`, the AC50 [2] is reported as 2310 nM [rising, single point].
In the case of `Cc1nc2nc(C)c(CCC(=O)NCc3ccc4c(c3)OCO4)c(C)n2n1`, the cell number change is reported as -1.04% and the AC50 [2] is reported as 6510 nM [falling, single point].
With `CN(C)C(CNC(=O)CSc1nnc(-c2ccco2)o1)c1ccccc1` (configuration not stated) the cell number change was 1.12% and the AC50 [1] was 3260 nM [rising, single point].
